Experimental data as given in paper PMC9581967, “Helical ultrastructure of the metalloprotease meprin α in complex with a small molecule inhibitor” (Nature Communications, 2022).
Results are given in words; binding and its absence hold for the method and conditions named. Some results given as binding are weak or reduced against the parent protein; the word gives no strength.

Molecular target: native meprin α from mouse urine (mouse (endogenous in urine)) (UniProt P28825)
Experiment: SEC; analytical size-exclusion chromatography of mouse urine after cisplatin treatment

B1: native meprin α from mouse urine (enzyme, UniProt P28825 65-713)
chain: NAMRDPSSRWKLPIPYILADNLELNAKGAILHAFEMFRLKSCVDFKPYEGESSYIIFQKLSGCWSMIGDQQVGQNISIGEGCDFKATIEHEILHALGFFHEQSRTDRDDYVNIWWDQIITDYEHNFNTYDDNTITDLNTPYDYESLMHYGPFSFNKNESIPTITTKIPEFNTIIGQLPDFSAIDLIRLNRMYNCTATHTLLDHCDFEKTNVCGMIQGTRDDADWAHGDSSQPEQVDHTLVGQCKGAGYFMFFNTSLGARGEAALLESRILYPKRKQQCLQFFYKMTGSPADRFEVWVRRDDNAGKVRQLAKIQTFQGDSDHNWKIAHVTLNEEKKFRYVFLGTKGDPGNSSGGIYLDDITLTETPCPAGVWTIRNISQILENTVKGDKLVSPRFYNSEGYGVGVTLYPNGRITSNSGFLGLTFHLYSGDNDAILEWPVENRQAIMTILDQEADTRNRMSLTLMFTTSKNQTSSAINGSVIWDRPSKVGVYDKDCDCFRSLDWGWGQAISHQLLKRRNFLKGDSLIIFVDFKDLTHLNRTEVPASARSTMPRGLLLQGQESPALGESSRKAMLEESLPSSLGQRHPSRQKRSVENTGPMEDHNWPQYFRDPCDPNPCQNEGTCVNVKGMASCRCVSGHAFFYAGERCQAM
In the case of B1, the binding is reported as “binds”.
